Experimental data reported in paper PMC11466968.

Chains of the proteins cited; added tags and fusions are not shown. Lines headed by an entry give the natural chain unless they say otherwise; changes in a name come on top.
UniProt O95817: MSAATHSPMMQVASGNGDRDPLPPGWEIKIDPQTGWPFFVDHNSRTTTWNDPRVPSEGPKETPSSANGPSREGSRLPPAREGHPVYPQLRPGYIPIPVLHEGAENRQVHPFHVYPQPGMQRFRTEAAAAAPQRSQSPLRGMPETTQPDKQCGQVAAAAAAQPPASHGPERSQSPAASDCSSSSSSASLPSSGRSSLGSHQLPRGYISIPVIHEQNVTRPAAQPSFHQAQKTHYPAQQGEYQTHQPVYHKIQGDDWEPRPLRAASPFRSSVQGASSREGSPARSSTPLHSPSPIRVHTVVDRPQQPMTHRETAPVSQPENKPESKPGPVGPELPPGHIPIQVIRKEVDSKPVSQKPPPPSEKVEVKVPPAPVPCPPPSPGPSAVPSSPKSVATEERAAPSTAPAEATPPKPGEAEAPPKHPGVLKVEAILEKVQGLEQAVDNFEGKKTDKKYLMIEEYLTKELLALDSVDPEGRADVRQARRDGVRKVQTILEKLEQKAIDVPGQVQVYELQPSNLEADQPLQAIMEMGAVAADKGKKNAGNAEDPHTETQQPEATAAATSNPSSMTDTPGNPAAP
UniProt Q13554: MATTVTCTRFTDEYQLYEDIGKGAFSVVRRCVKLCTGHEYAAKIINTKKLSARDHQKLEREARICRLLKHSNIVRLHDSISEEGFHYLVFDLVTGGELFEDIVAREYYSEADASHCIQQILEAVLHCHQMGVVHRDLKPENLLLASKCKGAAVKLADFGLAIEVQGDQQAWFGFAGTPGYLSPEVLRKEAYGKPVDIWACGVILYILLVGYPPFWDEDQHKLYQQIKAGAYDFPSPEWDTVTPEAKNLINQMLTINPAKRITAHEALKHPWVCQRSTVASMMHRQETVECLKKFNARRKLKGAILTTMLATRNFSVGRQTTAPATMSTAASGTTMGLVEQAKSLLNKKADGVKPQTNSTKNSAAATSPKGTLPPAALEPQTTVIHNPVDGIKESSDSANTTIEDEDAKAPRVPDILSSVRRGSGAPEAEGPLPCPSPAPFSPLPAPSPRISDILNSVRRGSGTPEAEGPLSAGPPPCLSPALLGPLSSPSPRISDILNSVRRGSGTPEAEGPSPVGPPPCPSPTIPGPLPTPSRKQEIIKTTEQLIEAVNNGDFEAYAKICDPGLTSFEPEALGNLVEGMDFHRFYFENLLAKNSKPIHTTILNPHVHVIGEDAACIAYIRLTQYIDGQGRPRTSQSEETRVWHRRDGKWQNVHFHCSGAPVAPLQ

Biological target: BAG3 (form in the experiment not stated) (UniProt O95817)
Experiment: co-IP; HEK293 transfected with the indicated plasmids; treated with MG132 (Fig. 4B, D, E) or not (Fig. 4B, F, G); immunoprecipitation with the indicated antibody; NP-40 alternative lysis buffer, 4 °C

binding: binds
Substance: CaMKIIβ (T287A)-4FLAG (from UniProt Q13554) (enzyme)

Results are given in words; binding and its absence hold for the method and conditions named. In cells and extracts the contact can be indirect. Binding can be weak; no strength is given.
